Record: PubChem BioAssay AID1259254 (NCATS, 2017)
This is one part, drawn at random, of about 59,000 reagents tested. About 1,550 of them (2.6%) were called active. 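G2 share is only a proxy for re-replication; each gene was hit by three separate siRNAs, and active genes were retested.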 Unmarked entries are inactive. The numbers tell different reagents against one gene apart. Further read-outs or replicates are left out here. Not stated in the record: the amount of reagent.

Purpose: 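Genome-wide screen for genes that prevent DNA re-replication in cancer cells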 (primary screen)
System: human HCT116 colorectal cancer cells
Reagent: single siRNA against human genes
Time to read-out: 3 days
Measurement: 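Nuclei stained with Hoechst and imaged; cell-cycle phase assigned by DNA content; G2 share scaled per plate, non-targeting siRNA 0%, GMNN siRNA 100%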
Scale: G2 robust z-score: higher = more G2 cells, more excess DNA replication
Call rule: 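Active siRNAs have a G2 robust z of 5 or more median absolute deviations over the median, which in these data means about 38% or higher of GMNN control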

| Target gene | siRNA no. | G2 robust z-score |
| --- | --- | --- |
| VASP (vasodilator stimulated phosphoprotein) | 1 | -1.17 |
| VASP (vasodilator stimulated phosphoprotein) | 2 | 3.7 |
| VASP (vasodilator stimulated phosphoprotein) | 3 | -0.703 |
| PGAP3 (post-GPI attachment to proteins phospholipase 3) | 1 | 0.972 |
| PGAP3 (post-GPI attachment to proteins phospholipase 3) | 2 | -0.493 |
| PGAP3 (post-GPI attachment to proteins phospholipase 3) | 3 | 0.393 |
| HMGB4 (high mobility group box 4) | 1 | 1.19 |
| HMGB4 (high mobility group box 4) | 2 | 0.57 |
| HMGB4 (high mobility group box 4) | 3 | -0.0821 |
| PSMD7 (proteasome 26S subunit, non-ATPase 7) | 1 | -0.434 |
| PSMD7 (proteasome 26S subunit, non-ATPase 7) | 2 | 1.08 |
| PSMD7 (proteasome 26S subunit, non-ATPase 7) | 3 | 2.31 |
| RPS11 (ribosomal protein S11) | 1 | 1.48 |
| RPS11 (ribosomal protein S11) | 2 | 7.47 (active) |
| RPS11 (ribosomal protein S11) | 3 | 4.04 |
| ZPBP (zona pellucida binding protein) | 1 | 0.192 |
| ZPBP (zona pellucida binding protein) | 2 | 0.00484 |
| ZPBP (zona pellucida binding protein) | 3 | -0.267 |
| MFSD11 (major facilitator superfamily domain containing 11) | 1 | -0.133 |
| MFSD11 (major facilitator superfamily domain containing 11) | 2 | 0.463 |
| MFSD11 (major facilitator superfamily domain containing 11) | 3 | -0.895 |
| RAPSN (receptor associated protein of the synapse) | 1 | -0.684 |
| RAPSN (receptor associated protein of the synapse) | 2 | -0.733 |
| RAPSN (receptor associated protein of the synapse) | 3 | 0.849 |
| VASH2 (vasohibin 2) | 1 | 0.274 |
| VASH2 (vasohibin 2) | 2 | 3.58 |
| VASH2 (vasohibin 2) | 3 | 0.294 |
| FRMD4A (FERM domain containing 4A) | 1 | 0.217 |
| FRMD4A (FERM domain containing 4A) | 2 | -1.19 |
| FRMD4A (FERM domain containing 4A) | 3 | 1.79 |
| THRB (thyroid hormone receptor beta) | 1 | -0.248 |
| THRB (thyroid hormone receptor beta) | 2 | 0.496 |
| THRB (thyroid hormone receptor beta) | 3 | -0.846 |
| MEIOC (meiosis specific with coiled-coil domain) | 1 | -0.643 |
| MEIOC (meiosis specific with coiled-coil domain) | 2 | -0.0743 |
| MEIOC (meiosis specific with coiled-coil domain) | 3 | 0.3 |
| SUCLG2 (succinate-CoA ligase GDP-forming subunit beta) | 1 | -0.659 |
| SUCLG2 (succinate-CoA ligase GDP-forming subunit beta) | 2 | -0.0991 |
| SUCLG2 (succinate-CoA ligase GDP-forming subunit beta) | 3 | 0.824 |
| BUB1 (BUB1 mitotic checkpoint serine/threonine kinase) | 1 | 0.189 |
| BUB1 (BUB1 mitotic checkpoint serine/threonine kinase) | 2 | 0.0951 |
| BUB1 (BUB1 mitotic checkpoint serine/threonine kinase) | 3 | -0.658 |
| ZNF790 (zinc finger protein 790) | 1 | 1.41 |
| ZNF790 (zinc finger protein 790) | 2 | 1.31 |
| ZNF790 (zinc finger protein 790) | 3 | -0.45 |
| NFKBID (NFKB inhibitor delta) | 1 | 0.756 |
| NFKBID (NFKB inhibitor delta) | 2 | 2.73 |
| NFKBID (NFKB inhibitor delta) | 3 | -0.85 |
| LRRC8E (leucine rich repeat containing 8 VRAC subunit E) | 1 | 4.99 |
| LRRC8E (leucine rich repeat containing 8 VRAC subunit E) | 2 | 0.423 |
| LRRC8E (leucine rich repeat containing 8 VRAC subunit E) | 3 | 0.858 |
| GMNC (geminin coiled-coil domain containing) | 1 | -0.186 |
| GMNC (geminin coiled-coil domain containing) | 2 | -0.2 |
| GMNC (geminin coiled-coil domain containing) | 3 | 2.65 |
| OPRL1 (opioid related nociceptin receptor 1) | 1 | 1.65 |
| OPRL1 (opioid related nociceptin receptor 1) | 2 | -0.868 |
| OPRL1 (opioid related nociceptin receptor 1) | 3 | -0.384 |
| EMC9 (ER membrane protein complex subunit 9) | 1 | -1.06 |
| EMC9 (ER membrane protein complex subunit 9) | 2 | 0.0358 |
| EMC9 (ER membrane protein complex subunit 9) | 3 | 0.784 |
| ZNF324 (zinc finger protein 324) | 1 | -0.653 |
| ZNF324 (zinc finger protein 324) | 2 | 0.443 |
| ZNF324 (zinc finger protein 324) | 3 | -0.551 |
| EIF3E (eukaryotic translation initiation factor 3 subunit E) | 1 | 2.55 |
| EIF3E (eukaryotic translation initiation factor 3 subunit E) | 2 | 2.84 |
| EIF3E (eukaryotic translation initiation factor 3 subunit E) | 3 | 4.62 |
| KLHDC7A (kelch domain containing 7A) | 1 | 2.38 |
| KLHDC7A (kelch domain containing 7A) | 2 | 1.43 |
| KLHDC7A (kelch domain containing 7A) | 3 | 0.971 |
| CLEC2D (C-type lectin domain family 2 member D) | 1 | 0.37 |
| CLEC2D (C-type lectin domain family 2 member D) | 2 | 3.11 |
| CLEC2D (C-type lectin domain family 2 member D) | 3 | -1.12 |
| DLX2 (distal-less homeobox 2) | 1 | 2.74 |
| DLX2 (distal-less homeobox 2) | 2 | 0.24 |
| DLX2 (distal-less homeobox 2) | 3 | 1.42 |
| ACTL10 (actin like 10) | 1 | -0.782 |
| ACTL10 (actin like 10) | 2 | -0.824 |
| ACTL10 (actin like 10) | 3 | -0.628 |
| PDE7A (phosphodiesterase 7A) | 1 | 3.64 |
| PDE7A (phosphodiesterase 7A) | 2 | -0.322 |
| PDE7A (phosphodiesterase 7A) | 3 | 0.502 |
| MSI2 (musashi RNA binding protein 2) | 1 | 1.04 |
| MSI2 (musashi RNA binding protein 2) | 2 | 3.25 |
| MSI2 (musashi RNA binding protein 2) | 3 | -0.224 |
| ATP5F1D (ATP synthase F1 subunit delta) | 1 | 0.11 |
| ATP5F1D (ATP synthase F1 subunit delta) | 2 | -1.04 |
| ATP5F1D (ATP synthase F1 subunit delta) | 3 | -0.738 |

Active calls, of those listed so far:
| Target gene | siRNA no. | G2 robust z-score |
| --- | --- | --- |
| RPS11 (ribosomal protein S11) | 2 | 7.47 (active) |
